In patent US8815772B2, “Fungicidal heterocyclic carboxamides” (E I du Pont de Nemours and Company, priority 2012, dated 2014):
Some of these results come from one statement about several compounds together.

System: southern root-knot nematode (Meloidogyne incognita)
Experiment: Test I: control of southern root-knot nematode, soil application, root gall formation on cucumber seedlings
Format: in vivo
Conditions: 250 ppm active ingredient applied to soil, about 250 J2 larvae, 27° C., 7 days

| Structure (SMILES) | reduction in root galling, compared to solvent-treated controls (good levels of plant protection) [%] |
| --- | --- |
| CC(Cc1ccc(-n2ccc(C(F)(F)F)n2)cc1Cl)NC(=O)c1nccnc1Cl (centres unmarked) [Compound 1] | ≥ 50 |
| O=C(NCCc1ncc(-n2ccc(C(F)(F)F)n2)cc1Cl)c1ccccc1C(F)(F)F [Compound 85, N-[2-[3-chloro-5-[(3-trifluoromethyl)-1H-pyrazol-1-yl]-2-pyridinyl]ethyl]-2-(trifluoromethyl)benzamide] | ≥ 50 |
